# This is one part of the list.
# Test system: T1, CTL2-GFP (C. trachomatis L2/434/Bu, GFP-expressing)
# T1 construct: L2/434/Bu, GFP-expressing
# Parameters: species or system HeLa; Intracellular C. trachomatis growth in HeLa cells, bulk GFP fluorescence relative to DMSO
# Conditions: bulk GFP, single well; 28.5 h, 10 µM; inhibitor
row,SMILES,% of control remaining
1,Cc1nc(C2CN(c3ccnc4c(F)cccc34)CCO2)no1 (stereo not shown) [CBK304464],77.0829%
2,COc1ccc(-c2cc(C(=O)N3CCC(S(C)(=O)=O)C3)cnc2-c2ccccc2)cn1 (stereo not shown) [CBK036706],174.104%
3,O=S(=O)(Nc1nnn[nH]1)c1cccc(C(F)(F)F)c1 [CBK062377],143.841%
4,COc1ccc(Cc2nc(CCNC(C)=O)n(CC(F)(F)F)n2)cc1 [CBK307287],143.987%
5,Nc1ncc(-c2ccc(OC(F)(F)F)cc2)nc1-c1ccc(O)cc1 [CBK122506],132.951%
6,Cc1cccc(C(C)(C)C)c1NC(=O)N1CCC(Cc2ccccc2)CC1 [CBK043962],85.6972%
7,CC(Oc1ccccc1)C(=O)NCCCc1ccccc1 (stereo not shown) [CBK264060],121.403%
8,O=[N+]([O-])c1ccc(CSc2nnc(-c3cnccn3)n2Cc2ccco2)cc1 [CBK267585],106.934%
9,Cc1ccc(F)c(NS(=O)(=O)Cc2ccccc2)c1 [CBK038438],99.9788%
10,CN1C(=O)CC2(C1=O)C(=O)N(CCN1CCCC1=O)c1ccc(F)cc12 (stereo not shown) [CBK075463],147.614%
11,CN(Cc1ncc[nH]1)C(=O)c1cn(Cc2cccc(C(F)(F)F)c2)nn1 [CBK306768],120.934%
12,COc1ccc(CC(=O)N(C)CCN2CCCCC2)cc1C [CBK282728],152.015%
13,CC1(C)Cc2nc(N3CCOCC3)ncc2C(NC(=O)C2CCCC2)C1 (stereo not shown) [CBK307687],97.6753%
14,O=C(CSc1ncnc2scc(-c3ccc(Cl)cc3)c12)Nc1nsc(-c2ccccc2)n1 [CBK266473],159.256%
15,Fc1cccc(-c2nnc(SCc3nc4ccccc4[nH]3)n2-c2ccccc2)c1 [CBK263256],113.786%
16,COc1ccc(-c2cc[nH]n2)c(OC)c1OC [CBK022957C],127.236%
17,Cc1cccc(-n2c(CCc3ccccc3)nnc2SCC(=O)c2ccccc2)c1 [CBK266369],194.794%
18,CN1CCC(N(C)C(=O)NCCOc2ccccc2)C1 (stereo not shown) [CBK156018],101.422%
19,CCc1ccc2c(c1)C(CCNC(=O)c1ncoc1C(F)(F)F)C(=O)N2 (stereo not shown) [CBK304725],93.5557%
20,CN1C[C@@H](C(=O)N2CCCCCC2)[C@@]2(CCc3ccccc3C2=O)C1 [CBK284590],109.263%
21,Cc1ccc(C(=O)C(OC(=O)c2cc(O)nc3ccccc23)c2ccccc2)cc1C (stereo not shown) [CBK265515],100%
22,Cc1ccc(NC(=O)C2CC(=O)Nc3nc4ccccc4n32)cc1 (stereo not shown) [CBK288134],95.1754%
23,Cn1c(-c2ccccc2O)n[nH]c1=S [CBK014577],107.187%
24,Cc1ccc(C(=O)NCc2cccc(COCc3ccco3)c2)cc1F [CBK297750],142.858%
25,Cc1cc(C)n(CC(O)CN2C(=O)NC(C)(C)C2=O)n1 (stereo not shown) [CBK264811],110.313%

# Three entries out of the list, arranged by formula weight, rising:
row,SMILES,% of control remaining
24,Cc1ccc(C(=O)NCc2cccc(COCc3ccco3)c2)cc1F [CBK297750],142.858%
10,CN1C(=O)CC2(C1=O)C(=O)N(CCN1CCCC1=O)c1ccc(F)cc12 (stereo not shown) [CBK075463],147.614%
19,CCc1ccc2c(c1)C(CCNC(=O)c1ncoc1C(F)(F)F)C(=O)N2 (stereo not shown) [CBK304725],93.5557%

# Carrying on.

row,SMILES,% of control remaining
1,Nc1nc(=O)n([C@@H]2O[C@H](CO)[C@H](O)C2O)cc1CO (stereo partly shown) [CBK201160],102.715%
2,COc1cc(S(=O)(=O)NC2CC(C)(C)NC(C)(C)C2)ccc1F [CBK266561],115.535%
3,Cc1cc(COC(=O)N2CCC(CO)CC2)cc(C)n1 [CBK200152],126.636%
4,Cc1nc(-c2ccc(NC(=O)Cc3sc(C)nc3C)cc2)cs1 [CBK281404],103.077%
5,CN1CCN(CCCCn2nc3n(c2=O)-c2ccccc2OC3(C)C)CC1 [CBK023953C],104.868%
6,O=C1CCC(CNS(=O)(=O)c2ccccc2Cl)N1 (stereo not shown) [CBK304850],95.0352%
7,COc1ccc(Cl)cc1N1CCN(Cc2cc(OC)c(OC)c(OC)c2)CC1 [CBK126406],103.402%
8,COc1ccc2c(C)c(C(=O)NC(C)Cc3ccccn3)oc2c1 (stereo not shown) [CBK281424],118.571%
9,Cc1c(C(=O)N2CCS(=O)(=O)CC2)nnn1-c1ccc2ncccc2c1 [CBK305529],113.972%
10,O=C(CN1CCN(c2ncccn2)CC1)N1N=CCC1c1ccccc1 (stereo not shown) [CBK270184],158.709%
11,COc1ccc(OC(=O)N2CCC3(CC2)CC(=O)N(Cc2ccc(S(C)(=O)=O)cc2)C3=O)cc1 [CBK155952],90.7349%
12,CCn1c(=O)n(CC(=O)NCCc2ccccc2)c2cccnc21 [CBK283812],145.179%
13,CC(C)(C)c1ccc2c(c1)C(CCCCN1CCCC1)(c1ccccc1)C(=O)O2 (stereo not shown) [CBK017654C],100%
14,O=C(Nc1cccc(C(=O)O)c1)/C(=C\c1ccccc1)NC(=O)c1ccccc1Cl [CBK263710],135.059%
15,COc1ccc(-c2nc(COC(=O)c3cccnc3N)cs2)cc1OC [CBK296741],99.1493%
16,Cc1cccc(NC2(C(F)(F)F)NC(c3ccccc3)=NC2=O)n1 (stereo not shown) [CBK267476],141.784%
17,Cc1oc(CSc2nnc(NCc3ccc(F)cc3)s2)cc1C(=O)O [CBK296629],128.442%
18,Cc1cc(NC(=O)NC2CC3(CCN(C)CC3)Oc3ccccc32)no1 (stereo not shown) [CBK305059],137.012%
19,O=C(CN(c1ccccc1)S(=O)(=O)c1ccc(F)cc1)Nc1ccc(Cl)c(Cl)c1 [CBK268740],140.921%
20,Cc1nc2c(c(=O)[nH]1)CCN(C(=O)c1cc3c(s1)CCC3)C2 [CBK283751],74.7094%
21,CC(=O)N1CCC2(C/C=C/C[C@H]3CN(CCCc4ccccc4)CC[C@H]3NC(=O)CNC2=O)CC1 [CBK292140],123.001%
22,COc1ccc2[nH]c3c(c2c1)CCN(C(=O)CNCc1ccc(OC)c(OC)c1)C31CCN(CCOc2ccccc2)C1 (stereo not shown) [CBK076736T],94.2239%
23,O=C(/C=C/c1cn(-c2ccccc2)nc1-c1cc2ccccc2oc1=O)NCc1ccccc1 [CBK266530],120.485%
24,CSc1sc(NC(=O)Nc2cccc(C(F)(F)F)c2)cc1C#N [CBK017114],75.1433%

# Source: paper PMC12040169 (PLOS Biology, 2025)
